# From patent publication US11022604B2, “Dock derived compound against laminin receptor (37 LR) and uses thereof” (Purdue Research Foundation, priority 2017, dated 2021)
# “Also recorded” adds a separate entry of the source. At least one structure is not confirmed: it was looked up by name or label, or the drawing left a doubt.
# Experiments:
# Assay type in all cases: cell-based
# [1] = system: EA.hy926 endothelial cells; assay: Angiogenesis tube formation assay; settings: 1, 10, and 50 μM
# Protocol: Expression of PEDF-signaling associated genes from PC-3 cells treated with 50 μM C3, compared to DMSO control and normalized to GAPDH (n=3, mean±SEM). A Holm-Sidak multiple t test was used for statistical analysis (*p<0.05,**O<0.01, ***<0.001). […] Average tube count for 0.1% DMSO, 0.5% DMSO, and 1, 10 and 50 μM treatment with C3 (n=7, mean±SEM). 1 and 10 μM C3 were compared with respective 0.5% DMSO (unpaired two-tailed t test, ****<0.0001). 50 μM C3 was compared with respective 0.1% DMSO (unpaired two-tailed t test p<0.0001).
# Wound Healing Assay. PC-3 cells were seeded in 6 well plates at 3×10^5 cells per well in complete media until the cells reached confluency. Three horizontal and three vertical scratches were made in the confluent monolayers using a standard 200 μL pipette tip and cellular debris were removed by washing with 1×DPBS three times. 1×RPMI-1640 supplemented with C3 or DMSO was added and cells were incubated for 48 hours as described previously. […] Images were uploaded and analyzed for scratch geometry using the tscratch program (96). First, global thresholding was performed, then individual images were manually inspected for single image threshold adjustment and scratch geometries were quantified. […] The samples were analyzed using the Dionex UltiMate 3000 RSLC Nano System coupled to the Q Exactive™ HF Hybrid Quadrupole-Orbitrap MS (Thermo Scientific). […]
# [2] = system: endothelial vessel formation in vitro (tube formation); assay: Angiogenesis tube formation assay (derivatives); settings: 30 uM, 7 hour incubation
# Protocol: FIGS. 28A-28F Representative images of tube formation. 7 hour incubation period with respective compounds: FIG. 28A, DMSO; FIG. 28B DBGII-3, 30 uM; FIG. 28C, EGCG, 30 uM; FIG. 28 D, DBGII-5, 30 uM, FIG. 28E, C3, 30 uM; FIG. 28 F, DBGII-9, 30 uM.
# An angiogenesis tube formation assay was used to characterize the impact of compounds against endothelial vessel formation in vitro (i.e., tube formation).
# [3] = system: PC-3, Endo, TC2-Ras, SH-SY5Y, and LNCaP cells; assay: Cell viability screen (CCK-8), five cell lines; settings: 6 μM to 100 μM, 96 hours, various cell lines
structure (smiles),measurement,setting,value
"O=C(c1cc(F)cc2c1OCOC2)N1CCN(C2c3ccccc3-c3ccccc32)CC1 [Compound C3, [4-(9h-fluoren-9-yl)piperazino](6-fluoro-4h-1,3-benzodioxin-8-yl)methanone]",endothelial tube formation,[1],Inhibition of tube formation; also recorded: completely or nearly completely inhibit endothelial tube formation
same,tube formation,[2],tube inhibition
same,effect on cell viability in six-dose screen,[3],inhibited cell viability in a dose dependent manner
